The target of test [1] is T1, eGFP-Zscan4c fusion protein (mouse) (UniProt Q80VJ6).
T1 sequence: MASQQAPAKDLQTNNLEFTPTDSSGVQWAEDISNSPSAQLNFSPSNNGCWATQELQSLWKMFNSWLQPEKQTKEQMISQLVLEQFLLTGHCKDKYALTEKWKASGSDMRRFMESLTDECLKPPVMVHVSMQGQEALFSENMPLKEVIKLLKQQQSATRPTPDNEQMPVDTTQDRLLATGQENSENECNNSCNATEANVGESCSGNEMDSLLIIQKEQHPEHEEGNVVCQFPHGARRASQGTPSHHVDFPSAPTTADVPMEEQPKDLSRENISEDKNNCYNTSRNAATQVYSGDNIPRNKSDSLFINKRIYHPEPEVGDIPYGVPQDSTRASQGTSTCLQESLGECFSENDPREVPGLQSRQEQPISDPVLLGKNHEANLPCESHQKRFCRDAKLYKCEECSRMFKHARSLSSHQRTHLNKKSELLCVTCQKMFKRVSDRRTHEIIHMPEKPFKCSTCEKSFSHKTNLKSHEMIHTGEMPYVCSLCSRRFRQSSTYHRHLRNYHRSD
Briefly: co-IP; nuclear extracts of mouse ESCs (80 or 200 µg protein), pre-cleared, precipitated with GFP-Trap-A beads or anti-LSD-1, anti-CtBP2 or anti-V5 antibodies on protein A or G sepharose; washed with nuclear extraction buffer; immunoblot; Dox or Tet removal for 72 h to induce tagged Zscan4c.

By UniProt entry, the sequences of proteins in these tests, tags left out.
UniProt P56546: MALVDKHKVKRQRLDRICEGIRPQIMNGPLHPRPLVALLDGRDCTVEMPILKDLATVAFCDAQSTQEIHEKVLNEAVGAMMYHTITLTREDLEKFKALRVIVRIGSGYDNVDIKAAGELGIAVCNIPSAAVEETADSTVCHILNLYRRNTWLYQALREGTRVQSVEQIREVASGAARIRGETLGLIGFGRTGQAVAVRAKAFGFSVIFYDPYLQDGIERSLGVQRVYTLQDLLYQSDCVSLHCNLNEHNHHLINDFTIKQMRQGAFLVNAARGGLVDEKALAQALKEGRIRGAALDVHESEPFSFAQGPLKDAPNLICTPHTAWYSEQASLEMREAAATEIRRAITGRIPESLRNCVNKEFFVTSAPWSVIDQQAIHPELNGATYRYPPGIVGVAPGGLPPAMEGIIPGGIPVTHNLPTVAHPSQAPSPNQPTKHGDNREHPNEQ

Test [2] addresses C-Terminal Binding Protein-2 (CtBP2) (mouse (endogenous in mouse ESCs)) (UniProt P56546). The test is described as above.

No constants are given. Whether binding was seen depends on the method and setting. In cells and extracts the contact can be indirect. Some binding calls cover weakened binding; strength is not graded here. Sequences can lack the tags named with a protein.

As to “C-Terminal Binding Protein-2 (CtBP2) (from UniProt P56546 1-445)”, the binding result in test [1] is recorded as “binds”.

B1: Zscan4c-V5-His (protein, UniProt Q80VJ6 1-506)
chain: T1 sequence
With B1, the binding result in test [2] is “binds”.

(Values after publication PMC3940611.)
